Tests used:
Assay type in all cases: biochemical
Conditions in all cases: recombinant purified enzyme; 100 nM wortmannin + 5 µM compound
PI3K p110δ = tested on: T1, PI3K p110δ; experiment: PI3K activity assay (PIP3 production, Millipore kit) in combination with wortmannin, p110δ
T1 construct: purchased Millipore (Billerica, MA)
Procedure: (§1) The production of phosphatidylinositol (3,4,5)-triphosphate (PIP3) by the four class I PI3K isoenzymes (p110 α, β, γ, δ) was assessed using the PI3 Kinase Activity/Inhibitor Assay Kit (Millipore, Billerica, MA) according to the manufacturer's instructions. This assay works on the principle that the PH domain of the protein GRP-1 binds PIP3 with high affinity and specificity. This protein binds to the glutathione plate and captures either the PIP3 generated as part of the kinase reaction or the biotinylated-PIP3 tracer included in the kit. The captured biotinylated-PIP3 is detected using streptavidin-HRP conjugate and a colorimetric read out (OD 450).
(§2) The class I PI3Ks are heterodimeric enzymes formed by association of a p110 catalytic subunit with a p85 regulatory subunit. There are 4 variants of the p110 catalytic subunit designated p110α, β, δ or γ [22]. […] Briefly, in this assay the PIP3 generated as part of the kinase reaction or the biotinylated-PIP3 tracer included in the kit is captured on a glutathione plate via its interaction with the pleckstrin homology (PH) domain of the glutathione S-transferase (GST)-fusion protein general receptor for phosphoinositides-1 (GRP-1). The captured biotinylated-PIP3 is then detected using a streptavidin-HRP conjugate and a colorimetric read out.

PI3K p110β = tested on: T2, PI3K p110β; experiment: PI3K activity assay (PIP3 production, Millipore kit) in combination with wortmannin, p110β
T2 construct: purchased Millipore (Billerica, MA)
Procedure: as §1, §2

PI3K p110α = tested on: T3, PI3K p110α; experiment: PI3K activity assay (PIP3 production, Millipore kit) in combination with wortmannin, p110α
T3 construct: purchased Millipore (Billerica, MA)
Procedure: as §1, §2

PI3K p110γ = tested on: T4, PI3K p110γ; experiment: PI3K activity assay (PIP3 production, Millipore kit) in combination with wortmannin, p110γ
T4 construct: purchased Millipore (Billerica, MA)
Procedure: as §1, §2

`O=C(CCCCCCC(=O)Nc1ccccc1)NO` [SAHA, vorinostat, reference compound] was tested, and the “Agonist activity: effect on inhibition of PI3K p110δ by wortmannin” value (PI3K p110δ) was “activated”, the “Agonist activity: effect on inhibition of PI3K p110β by wortmannin” value (PI3K p110β) was “activated” and the “Agonist activity: effect on inhibition of PI3K p110α by wortmannin” value (PI3K p110α) was “acted as an agonist”. For the same molecule, the “Agonist activity: effect on inhibition of PI3K p110γ by wortmannin” value (PI3K p110γ) was “activated”.
